Measurements from PubChem BioAssay AID1347076 (National Center for Advancing Translational Sciences (NCATS), 2019).
About 13,000 (3.2%) of roughly 400,000 compounds were called active. The shares of active, inactive and inconclusive entries below differ from those in the screen. Calls come from the whole dose curve; as a rule, active = well fitted cell-killing curve with a large enough effect; inconclusive = small, poorly fitted or top-dose-only effect, or effect the other way; inactive = flat fitted curve, though single readings scatter. A potency beside an inconclusive call is a rough fit, not a confirmed value.

experiment: qHTS assay for MDR1-selective chemotherapeutics: Primary screen using the drug-selected MDR subline cells KB-V1; settings: KB-V1 MDR cells viability, CellTiter-Glo, 72 h; activity change, negative = cytotoxicity: at 46.1 µM (top of the series); note: nearly all actives have a fitted effect of over 60% in size
In short: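 In this primary screen, KB-V1 cells overexpressing P-gp are incubated with library compounds (lowest to highest concentration) for 72 h at 37 degrees C before a luminescent ATP viability read.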
% is set by controls: 0 for no effect and ±100 for the full control effect; potency is the fitted concentration of half-maximal effect.

Row | SMILES | Potency | activity change, negative = cytotoxicity
1 | Cc1cccc(C)c1NC(=O)COc1cccc(/C=N/NC(=O)C(=O)NCc2ccccc2)c1 | inconclusive: 16.4 µM [rising, partial curve, poor fit] | –
2 | Nc1nc(SCC(=O)Nc2ccc3c(c2)CCC3)n[nH]1 | inconclusive: 18.4 µM [cytotoxic, partial curve, poor fit] | –
3 | O=C(CCNC(=O)c1ccco1)Nc1ccc(F)c(Cl)c1 | – | inactive: -5.19%
4 | O=C(Cc1c(Cl)cccc1Cl)Nc1cccc(S(=O)(=O)N2CCOCC2)c1 | inconclusive: 29.1 µM [cytotoxic, single point] | –
5 | CCOC(=O)C(=O)NNc1ccc(Cl)cc1 | – | inactive: 8.54%
6 | COc1ccccc1CNc1nc(Oc2cccc(F)c2)c2sccc2n1 | – | inactive: -30.3%
7 | COc1ccccc1NS(=O)(=O)c1cccc(C(=O)N2CCCC2)c1 | inconclusive: 18.4 µM [cytotoxic, single point] | –
8 | CCNc1nc(NCC)nc(N/N=C/c2ccc(Br)cc2)n1 | inconclusive: 5.17 µM [cytotoxic, partial curve] | –
9 | CC(C)(C)NC(=O)C(c1ccc(C(F)(F)F)cc1)n1c(=O)c(-c2ccco2)nc2ccccc21 (stereo not given) | inconclusive: 8.2 µM [cytotoxic, partial curve, poor fit] | –
10 | COc1ccc(CCNC(=O)CSc2nc3[nH]ncc3c(=O)n2-c2ccc(Cl)cc2Cl)cc1OC | inconclusive: 0.0052 µM [rising, full curve] | –
11 | O=C(NC1CCCCC1)C(c1ccc(O)cc1)N(CC1CCCO1)C(=O)C1COc2ccccc2O1 (stereo not given) | active: 20.6 µM | –
12 | Cc1ccc2c(Cl)c(C(=O)NCc3cccnc3)sc2c1 | active: 14.6 µM | –
13 | CC(C)Cn1c(N)c(C(=O)COC(=O)c2c(O)c(Cl)cc(Cl)c2Cl)c(=O)n(C)c1=O | inconclusive: 29.1 µM [cytotoxic, single point] | –
14 | Cc1ccc2nc(-c3ccco3)c(Cc3ccccc3)n2c1 | inconclusive: 29.1 µM [cytotoxic, single point] | –
15 | S=c1[nH]cnc2scc(-c3ccc(Br)cc3)c12 | inconclusive: 20.6 µM [cytotoxic, single point] | –
16 | N/C(=N\OC(=O)CCC1CCCC1)c1cccnc1 | – | inactive: 14.4%
17 | COc1cc(CNc2ccc3[nH]c(=O)[nH]c3c2)ccc1OCc1ccc(F)cc1 | inconclusive: 20.6 µM [rising, single point] | –
18 | COC(=O)CCCC(=O)N1CCCC(CNS(=O)(=O)c2ccc(OC)cc2)C1 (stereo not given) | inconclusive: 29.1 µM [rising, single point] | –
19 | C/C=C/Cn1c(SCCCc2ccccc2)nc2c1c(=O)[nH]c(=O)n2C | inconclusive: 20.6 µM [cytotoxic, single point] | –
20 | Cc1ccc(C(=O)N(C)CC(=O)Nc2ccc(N3CCOCC3)cc2)s1 | – | inactive: 19.2%
21 | NS(=O)(=O)c1cccc(NC(=O)CCSc2ccccc2Cl)c1 | inconclusive: 18.4 µM [cytotoxic, partial curve, poor fit] | –
22 | CCn1c2ccccc2c2nnc(SCC(=O)Nc3ncccn3)nc21 | inconclusive: 20.6 µM [cytotoxic, single point] | –
23 | COC(=O)[C@]1(Cc2ccccc2)N[C@H](CN(C)S(=O)(=O)c2ccc(C(C)(C)C)cc2)[C@@H]2C(=O)N(C)C(=O)[C@@H]21 | – | inactive: 0%
24 | Clc1cccc(-c2nc(NCc3cccnc3)c3ccccc3n2)c1 | active: 14.6 µM | –

Row | SMILES | Potency | activity change, negative = cytotoxicity
25 | CCN(c1cccc2ccccc12)S(=O)(=O)c1ccc(Cl)nc1 | – | inactive: -0.445%
26 | Cc1ccc(Sc2c(C(=O)NCc3ccccc3C)[nH]c3ccccc23)cc1 | inconclusive: 20.6 µM [rising, single point] | –
27 | Cc1cc(CNC(=O)COc2ccc(F)cc2F)c2ccccc2n1 | inconclusive: 10.3 µM [cytotoxic, partial curve] | –
28 | CCOc1cc(CN2CCN(c3ccc(C(C)=O)cc3)CC2)ccc1OC | active: 23.1 µM | –
29 | CCC(c1nnnn1-c1ccc2c(c1)OCCO2)N1CCN(c2ccc(C(F)(F)F)cn2)CC1 (stereo not given) | inconclusive: 18.4 µM [cytotoxic, partial curve] | –
30 | CC1(C)CC(=O)C(C2=NC(C)(C)Cc3ccccc32)=C(O)C1 | inconclusive: 7.31 µM [cytotoxic, partial curve, poor fit] | –
31 | O=[N+]([O-])c1ccc(NC(c2ccccc2)c2ccc3cccnc3c2O)cc1 (stereo not given) | inconclusive: 13 µM [cytotoxic, partial curve, poor fit] | –
32 | COC(=O)c1ccccc1NC(=O)c1cn(-c2ccc(C)c(C)c2)c(=O)c2ccccc12 | inconclusive: 20.6 µM [cytotoxic, partial curve, poor fit] | –
33 | CC(C)OC(=O)CN1C(=O)C(=O)c2ccccc21 | inconclusive: 23.1 µM [cytotoxic, single point] | –
34 | CN(CC(=O)NCCc1ccc(S(N)(=O)=O)cc1)CC(=O)Nc1cccc(F)c1 | inconclusive: 23.1 µM [rising, partial curve, poor fit] | –
35 | O=C1CCCCCN1Cc1ccccc1 | inconclusive: 23.1 µM [rising, single point] | –
36 | N#Cc1ccccc1Cn1c(=O)n(Cc2ccc(C(=O)NC3CCN(Cc4ccccc4)CC3)cc2)c(=O)c2ccccc21 | inconclusive: 29.1 µM [rising, single point] | –
37 | Cc1cc(C(=O)COc2ccc([N+](=O)[O-])cc2)c(C)n1C1CC1 | inconclusive: 29.1 µM [cytotoxic, single point] | –
38 | CCC(Br)C(=O)Nc1ccc(OC)cc1 (stereo not given) | – | inactive: 9.91%
39 | FC(F)(F)c1cccc(Cn2nnnc2-c2cc(Cl)cc(Cl)c2)c1 | – | inactive: -7.72%
40 | O=C(Cn1cc(C(=O)C2CCCCC2)c2ccccc21)NCC1CCCO1 (stereo not given) | inconclusive: 18.4 µM [cytotoxic, partial curve] | –
41 | COc1ccc(NC(=O)c2cccc(N3C(=O)C4C5C=CC(C5)C4C3=O)c2)cc1Cl (stereo not given) | – | inactive: -1.1%
42 | Fc1ccccc1NC(=S)NNc1ncc(C(F)(F)F)cc1Cl | inconclusive: 23.1 µM [cytotoxic, partial curve, poor fit] | –
43 | O=C1c2cccc3c([N+](=O)[O-])ccc(c23)C(=O)N1c1ccc(Cl)cn1 | – | inactive: -2.01%
44 | Cc1cc(C)n2nc(SC(C)C(=O)N3CCCC3)nc2n1 (stereo not given) | – | inactive: -4.61%
45 | CCCCn1c(CCNC(=O)CCC)nc2ccccc21 | inconclusive: 10.3 µM [cytotoxic, partial curve, poor fit] | –
46 | COc1ccc(OCc2cccc(C(=O)Nc3ccc(CN4CCCCC4)cc3)c2)cc1 | – | inactive: -34%
47 | CCOc1ccc(N(CC(=O)NC2CCCCC2)C(=O)CCC(=O)Nc2ccccn2)cc1 | inconclusive: 18.4 µM [cytotoxic, single point] | –
48 | Fc1ccc(-c2nnc(-c3ccc(Cl)cc3)o2)cc1 | inconclusive: 14.6 µM [cytotoxic, partial curve, poor fit] | –

Row | SMILES | Potency | activity change, negative = cytotoxicity
49 | CCc1cc2c(NCc3ccco3)ncnc2s1 | active: 20.6 µM | –
50 | Cc1cc(C)c(C)c(S(=O)(=O)N2CCN(CC(=O)Nc3sccc3C#N)CC2)c1C | inconclusive: 18.4 µM [cytotoxic, single point] | –
51 | CCNC(=O)c1ccc2nc(Cc3ccccc3)oc2c1 | – | inactive: -2.44%
52 | Cc1cc(C(=O)N=Nc2c(O)n(C(C)C)c3ccccc23)n[nH]1 | inconclusive: 29.1 µM [cytotoxic, single point] | –
53 | NNC(=O)c1ccc([N+](=O)[O-])c(CS(=O)(=O)c2ccc(Cl)cc2)c1 | – | inactive: 0%
54 | Cc1ccc(S(=O)(=O)c2nc(-c3ccco3)oc2SCc2ccccc2Cl)cc1 | inconclusive: 2.59 µM [cytotoxic, full curve] | –
55 | O=C(CSc1ccc(Cl)cc1)N1CCN(c2ncc(C(F)(F)F)cc2Cl)CC1 | active: 14.6 µM | –
56 | Cc1nnc(SCC(=O)N2CCN(c3ccccc3)CC2)n1-c1ccccc1 | – | inactive: -5.39%
57 | O=C(NCc1ccccc1)C1=C[C@@H](c2csc3ccccc23)C[C@@H](OCCCCO)O1 | inconclusive: 6.51 µM [cytotoxic, full curve] | –
58 | CC1CCN(C(=O)CSc2ccc(-c3ccccc3)nn2)CC1 | inconclusive: 13 µM [cytotoxic, partial curve] | –
59 | Nc1ccccc1Sc1nc2ccccc2[nH]1 | inconclusive: 14.6 µM [cytotoxic, single point] | –
60 | COc1ccc2c(c1)C(=O)N(c1ccccc1OC)C(=O)C2(C)C | inconclusive: 29.1 µM [cytotoxic, single point] | –
61 | Cc1csc(NC(=O)CSc2nnc(-c3ccoc3C)o2)n1 | – | inactive: 3.53%
62 | Cc1cc(C)cc(NC(=O)C(=O)NC(C)c2ccccc2)c1 (stereo not given) | – | inactive: 13.1%
63 | CCNC(=O)N(CC)C[C@H]1N[C@@](Cc2ccccc2)(C(=O)OC)[C@H]2C(=O)N(C)C(=O)[C@@H]12 | inconclusive: 20.6 µM [rising, partial curve] | –
64 | Cc1c(Nc2cc(Cl)c3nonc3c2[N+](=O)[O-])c(=O)n(-c2ccccc2)n1C | – | inactive: -13%
65 | COc1ccc(C2CC(=O)C=C(NCc3ccc4c(c3)OCO4)C2)cc1 (stereo not given) | inconclusive: 3.66 µM [cytotoxic, full curve] | –
66 | CC(C)N(Cc1nnc(-c2ccccc2Br)o1)C(=O)c1cc(Cl)nc2ccccc12 | inconclusive: 32.6 µM [cytotoxic, partial curve, poor fit] | –
67 | c1ccc(-c2nn[nH]n2)cc1 | – | inactive: 3.72%
68 | Cc1ccc(-n2c(SCC(=O)Nc3cccc(F)c3)nc3c(oc4ccccc43)c2=O)cc1C | inconclusive: 4.61 µM [rising, full curve] | –
69 | CCOC(=O)CNC(=O)/C=C/c1ccc2c(c1)OCO2 | inconclusive: 2.91 µM [rising, partial curve, poor fit] | –
70 | CCOc1ccc(Br)cc1CSC(=N)N | inconclusive: 7.31 µM [cytotoxic, partial curve] | –

Structural class: the compounds so far containing a cyano group (two)
Row | SMILES | Potency | activity change, negative = cytotoxicity
36 | N#Cc1ccccc1Cn1c(=O)n(Cc2ccc(C(=O)NC3CCN(Cc4ccccc4)CC3)cc2)c(=O)c2ccccc21 | inconclusive: 29.1 µM [rising, single point] | –
50 | Cc1cc(C)c(C)c(S(=O)(=O)N2CCN(CC(=O)Nc3sccc3C#N)CC2)c1C | inconclusive: 18.4 µM [cytotoxic, single point] | –
